Laboratory results as given in PubChem BioAssay AID292 (DTP/NCI, 2004).
The list shows only some results of the screen, not a fair sample: its compounds were picked by chemical class. Not every dose and run of a compound is shown. T/C gives the treated animals as a percentage of the vehicle group. For survival time, this PubChem deposit counts one and a half times the control or more as active, and values a quarter to a half above the control carry no call in these data; other NCI protocols may use other cut-offs. Schedule codes are those of the source, taken here to give the interval after Q, in days (D) or hours (H), and the number of doses after X.

Tested on: B6C3F1 mice, ip Sarcoma M5076, median survival T/C
Assay: NCI In Vivo Anticancer Drug Screen. Data for tumor model Sarcoma M5076 (intraperitoneal) in B6C3F1 mice
Settings: T/C endpoint: median survival time, schedule: Q04DX004 (ip), vehicle: saline, higher T/C = longer survival
Procedure: The antitumor activity of compounds was measured in mice bearing transplantable tumors. Survival or tumor size were measured and the results are expressed as the measurement made in the treated group (T) divided by the measurement made in the vehicle treated control group (C). The tumor model used in this assay is Sarcoma M5076 (intraperitoneal) in B6C3F1 mice

In the case of `NCCN(CCCl)CCCl`, the T/C (dose: 0.54 mg/kg/injection) is reported as 112 % of control, the T/C (dose: 0.9 mg/kg/injection) is reported as 158 % of control and the T/C (dose: 1.5 mg/kg/injection) is reported as 251 % of control.
